Measured values as given in article PMC8838411, “Disrupting the MAD2L2-Rev1 Complex Enhances Cell Death upon DNA Damage” (Molecules, 2022).
Results are given in words; binding and its absence hold for the method and conditions named. In cells and extracts the contact can be indirect. Some entries that bind do so weakly or less than the wild type. Sequences can lack the tags named with a protein.

Chains of the proteins cited; added tags and fusions are not shown.
UniProt Q9UI95: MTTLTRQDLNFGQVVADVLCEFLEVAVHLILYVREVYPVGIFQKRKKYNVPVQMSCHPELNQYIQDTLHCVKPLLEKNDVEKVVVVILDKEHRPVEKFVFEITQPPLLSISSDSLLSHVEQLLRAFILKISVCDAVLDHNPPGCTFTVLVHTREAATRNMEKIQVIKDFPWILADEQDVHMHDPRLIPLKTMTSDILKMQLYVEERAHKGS

Target: T1, YFP-Rev1 (UniProt Q9UBZ9)
T1 sequence: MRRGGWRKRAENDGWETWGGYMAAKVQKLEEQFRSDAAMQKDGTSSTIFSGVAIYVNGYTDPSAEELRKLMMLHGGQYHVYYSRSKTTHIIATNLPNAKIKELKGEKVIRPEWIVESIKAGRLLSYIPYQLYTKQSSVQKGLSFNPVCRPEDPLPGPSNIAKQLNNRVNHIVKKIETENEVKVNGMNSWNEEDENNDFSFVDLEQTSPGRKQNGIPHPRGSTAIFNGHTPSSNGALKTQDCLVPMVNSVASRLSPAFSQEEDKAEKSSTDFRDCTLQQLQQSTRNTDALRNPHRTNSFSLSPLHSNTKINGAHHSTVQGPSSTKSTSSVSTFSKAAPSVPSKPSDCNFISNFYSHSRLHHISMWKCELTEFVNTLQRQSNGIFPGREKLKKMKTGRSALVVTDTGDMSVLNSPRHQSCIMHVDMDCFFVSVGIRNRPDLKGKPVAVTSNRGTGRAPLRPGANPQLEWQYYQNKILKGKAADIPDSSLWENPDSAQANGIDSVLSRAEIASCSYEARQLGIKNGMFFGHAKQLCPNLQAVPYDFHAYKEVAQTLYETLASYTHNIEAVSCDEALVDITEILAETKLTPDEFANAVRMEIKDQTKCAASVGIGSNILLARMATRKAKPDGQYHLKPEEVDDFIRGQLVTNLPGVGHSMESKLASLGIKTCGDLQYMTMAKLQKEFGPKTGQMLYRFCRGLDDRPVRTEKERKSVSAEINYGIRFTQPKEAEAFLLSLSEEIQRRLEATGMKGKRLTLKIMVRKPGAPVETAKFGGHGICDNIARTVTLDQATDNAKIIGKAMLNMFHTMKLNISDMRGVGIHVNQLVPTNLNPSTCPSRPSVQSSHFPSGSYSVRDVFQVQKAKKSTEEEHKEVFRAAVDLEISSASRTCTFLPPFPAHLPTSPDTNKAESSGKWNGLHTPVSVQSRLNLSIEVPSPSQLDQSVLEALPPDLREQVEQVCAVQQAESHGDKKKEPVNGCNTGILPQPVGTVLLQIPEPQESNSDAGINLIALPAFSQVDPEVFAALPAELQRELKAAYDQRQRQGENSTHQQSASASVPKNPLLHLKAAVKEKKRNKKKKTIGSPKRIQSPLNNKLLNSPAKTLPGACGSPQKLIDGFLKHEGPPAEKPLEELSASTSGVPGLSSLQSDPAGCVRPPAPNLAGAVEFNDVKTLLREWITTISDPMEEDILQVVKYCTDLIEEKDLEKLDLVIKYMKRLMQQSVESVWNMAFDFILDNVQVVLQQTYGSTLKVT
Experiment: co-IP; HEK293 cells co-transfected with YFP-Rev1 and myc-MAD2L2; treated with DMSO, c#2 or c#3 (50 uM) for 24 h before harvest; lysates in 50 mM Tris pH 8, 150 mM NaCl, 20 mM EDTA, 50 mM NaF, 1% TritonX; GFP-Trap agarose beads 1-2 h at 4 °C; blot for myc and GFP

binding: binds
Substance: myc-MAD2L2 (from UniProt Q9UI95 1-211)
